Measured values reported in paper PMC12618784.
These are yes or no findings as the source states them, for the method shown. In cells and extracts the contact can be indirect. These calls come from enrichment with a bait or labelling near it, and not all partners need be listed.

Amino acid sequences for entries named in this document (tags omitted).
UniProt P22700: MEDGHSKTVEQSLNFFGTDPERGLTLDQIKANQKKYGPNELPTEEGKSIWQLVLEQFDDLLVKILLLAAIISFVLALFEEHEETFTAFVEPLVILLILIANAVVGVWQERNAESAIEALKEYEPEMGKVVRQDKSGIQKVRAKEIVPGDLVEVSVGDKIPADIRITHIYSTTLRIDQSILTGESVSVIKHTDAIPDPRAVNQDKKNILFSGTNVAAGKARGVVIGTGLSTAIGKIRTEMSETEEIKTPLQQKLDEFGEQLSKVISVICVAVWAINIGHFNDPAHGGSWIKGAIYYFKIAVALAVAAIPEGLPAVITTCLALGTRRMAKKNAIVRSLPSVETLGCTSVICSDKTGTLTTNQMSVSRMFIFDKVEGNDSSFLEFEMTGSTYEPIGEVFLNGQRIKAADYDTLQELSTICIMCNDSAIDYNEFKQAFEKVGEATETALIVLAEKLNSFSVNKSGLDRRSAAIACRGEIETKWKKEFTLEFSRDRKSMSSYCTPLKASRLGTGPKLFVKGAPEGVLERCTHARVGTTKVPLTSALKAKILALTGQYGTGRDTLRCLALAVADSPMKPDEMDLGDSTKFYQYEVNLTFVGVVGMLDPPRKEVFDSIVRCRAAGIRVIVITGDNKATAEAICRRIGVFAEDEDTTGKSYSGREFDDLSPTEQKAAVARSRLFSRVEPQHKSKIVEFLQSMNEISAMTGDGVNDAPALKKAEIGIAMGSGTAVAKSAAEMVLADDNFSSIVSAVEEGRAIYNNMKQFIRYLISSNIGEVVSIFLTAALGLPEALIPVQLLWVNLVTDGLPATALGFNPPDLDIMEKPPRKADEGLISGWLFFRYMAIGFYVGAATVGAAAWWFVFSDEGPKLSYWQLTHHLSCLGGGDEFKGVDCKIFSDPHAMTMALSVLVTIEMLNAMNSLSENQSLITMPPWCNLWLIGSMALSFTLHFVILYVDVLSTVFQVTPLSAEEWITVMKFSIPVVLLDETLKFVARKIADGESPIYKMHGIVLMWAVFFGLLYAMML

Target: T1, Dmel\Tmem43wt::TurboID (Drosophila) (UniProt Q9VSB9)
T1 sequence: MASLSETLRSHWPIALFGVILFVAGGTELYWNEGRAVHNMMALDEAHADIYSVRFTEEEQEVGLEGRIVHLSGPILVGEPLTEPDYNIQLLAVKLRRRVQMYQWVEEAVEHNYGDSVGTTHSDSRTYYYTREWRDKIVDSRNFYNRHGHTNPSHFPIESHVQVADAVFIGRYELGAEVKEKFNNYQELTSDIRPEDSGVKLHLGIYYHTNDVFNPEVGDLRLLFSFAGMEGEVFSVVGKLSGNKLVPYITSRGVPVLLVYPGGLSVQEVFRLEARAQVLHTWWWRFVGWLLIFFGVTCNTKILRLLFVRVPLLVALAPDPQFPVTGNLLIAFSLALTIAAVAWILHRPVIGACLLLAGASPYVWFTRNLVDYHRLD
Assay: proximity labelling; TurboID fusions expressed in muscle of third-instar larvae (mef2-Gal4); biotinylated proteins purified on streptavidin microbeads and identified by mass spectrometry

| binding | Substance |
| --- | --- |
| binds | HRP49 |
| binds | SERCA (from UniProt P22700 1-1020) |
